According to PMC8905735:
These are yes or no findings as the source states them, for the method shown. Binding seen in cells or lysates may run through a third protein. Some entries that bind do so weakly or less than the wild type.

Amino acid sequences for entries named in this document (tags omitted).
UniProt O00487: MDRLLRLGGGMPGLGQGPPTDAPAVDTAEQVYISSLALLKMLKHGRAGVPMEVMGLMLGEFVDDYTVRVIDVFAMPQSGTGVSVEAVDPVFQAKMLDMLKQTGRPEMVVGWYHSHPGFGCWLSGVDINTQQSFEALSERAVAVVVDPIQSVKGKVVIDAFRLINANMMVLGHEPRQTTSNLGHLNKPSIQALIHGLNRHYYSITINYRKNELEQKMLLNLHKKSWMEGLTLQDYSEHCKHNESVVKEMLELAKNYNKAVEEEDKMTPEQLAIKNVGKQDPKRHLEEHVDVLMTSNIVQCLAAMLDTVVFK

T1: transforming growth factor beta receptor 1 (TGFBR1) (UniProt P80204)
T1 sequence: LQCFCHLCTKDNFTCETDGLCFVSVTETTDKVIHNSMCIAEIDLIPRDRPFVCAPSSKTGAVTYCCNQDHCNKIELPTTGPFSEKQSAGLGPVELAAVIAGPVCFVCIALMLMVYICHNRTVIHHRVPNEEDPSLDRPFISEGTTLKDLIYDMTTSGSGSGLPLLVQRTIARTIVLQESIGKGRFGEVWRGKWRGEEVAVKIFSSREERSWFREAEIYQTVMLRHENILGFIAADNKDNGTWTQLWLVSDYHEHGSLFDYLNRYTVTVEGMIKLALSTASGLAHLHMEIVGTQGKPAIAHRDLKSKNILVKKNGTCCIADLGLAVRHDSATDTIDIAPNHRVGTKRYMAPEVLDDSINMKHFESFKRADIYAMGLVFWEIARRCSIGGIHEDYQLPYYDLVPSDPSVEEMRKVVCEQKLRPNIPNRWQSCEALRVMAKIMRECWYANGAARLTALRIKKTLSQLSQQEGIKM


Experiments:
[1] = biological target: T1, transforming growth factor beta receptor 1 (TGFBR1); test: co-IP; lysates of rMCs transfected with TGFBR1 or PSMD14 overexpression vectors (24 h); Protein G agarose beads; immunoprecipitation with anti-PSMD14 or anti-TGFBR1, western blot of the immunoprecipitates
[2] = biological target: proteasome 26S subunit, non-ATPase 14 (PSMD14) (UniProt O00487); test: as above

Row | binding [1] | binding [2] | Molecule
1 | binds |  | proteasome 26S subunit, non-ATPase 14 (PSMD14) (from UniProt O00487 1-310) (enzyme)
2 |  | binds | transforming growth factor beta receptor 1 (TGFBR1) (receptor, UniProt P80204 30-501) LQCFCHLCTKDNFTCETDGLCFVSVTETTDKVIHNSMCIAEIDLIPRDRPFVCAPSSKTGAVTYCCNQDHCNKIELPTTGPFSEKQSAGLGPVELAAVIAGPVCFVCIALMLMVYICHNRTVIHHRVPNEEDPSLDRPFISEGTTLKDLIYDMTTSGSGSGLPLLVQRTIARTIVLQESIGKGRFGEVWRGKWRGEEVAVKIFSSREERSWFREAEIYQTVMLRHENILGFIAADNKDNGTWTQLWLVSDYHEHGSLFDYLNRYTVTVEGMIKLALSTASGLAHLHMEIVGTQGKPAIAHRDLKSKNILVKKNGTCCIADLGLAVRHDSATDTIDIAPNHRVGTKRYMAPEVLDDSINMKHFESFKRADIYAMGLVFWEIARRCSIGGIHEDYQLPYYDLVPSDPSVEEMRKVVCEQKLRPNIPNRWQSCEALRVMAKIMRECWYANGAARLTALRIKKTLSQLSQQEGIKM
